Consider one compound from ChEMBL document CHEMBL1157366 (Antimicrob Agents Chemother, 2007).

The test deals with Plasmodium falciparum. Description: Antimalarial activity against Plasmodium falciparum. It is filed as functional, organism-based.

The compound `CCCCc1oc2ccccc2c1C(=O)c1cc(I)c(OCCN(CC)CC)c(I)c1` [AMIODARONE] showed an IC50 of 2500 nM. In other words, the single-digit micromolar range.
